In paper PMC10658506:
No constants are given. Whether binding was seen depends on the method and setting. Some binding calls cover weakened binding; strength is not graded here. Where a sequence is shown, tags or fusion partners need not be part of it.

Target: T1, yeast-displayed wild-type human IL-11 (human) (UniProt P20809)
T1 sequence: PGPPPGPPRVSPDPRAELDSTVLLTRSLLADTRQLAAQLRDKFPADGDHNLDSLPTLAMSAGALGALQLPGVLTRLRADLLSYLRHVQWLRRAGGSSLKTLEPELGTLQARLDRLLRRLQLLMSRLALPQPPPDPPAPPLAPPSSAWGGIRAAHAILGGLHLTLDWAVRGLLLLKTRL
Assay: flow cytometry on cells; yeast-displayed IL-11 variants incubated with varying concentrations of soluble IL-11R or mIL-11R overnight at room temperature, washed with BPBS; receptor detected with anti-his AF647, display with anti-c-myc; apparent Kd from the fraction bound of the expressing …; only the binder purified

binding: binds
B1: soluble human IL-11 receptor extracellular domain, his-tagged (receptor, UniProt Q14626 24-370)
chain: SPCPQAWGPPGVQYGQPGRSVKLCCPGVTAGDPVSWFRDGEPKLLQGPDSGLGHELVLAQADSTDEGTYICQTLDGALGGTVTLQLGYPPARPVVSCQAADYENFSCTWSPSQISGLPTRYLTSYRKKTVLGADSQRRSPSTGPWPCPQDPLGAARCVVHGAEFWSQYRINVTEVNPLGASTRLLDVSLQSILRPDPPQGLRVESVPGYPRRLRASWTYPASWPCQPHFLLKFRLQYRPAQHPAWSTVEPAGLEEVITDAVAGLPHAVRVSARDFLDAGTWSTWSPEAWGTPSTGTIPKEIPAWGQLHTQPEVEPQVDSPAPPRPSLQPHPRLLDHRDSVEQVAVLA
